Results published in publication PMC4603794.
Results are given in words; binding and its absence hold for the method and conditions named. In cells and extracts the contact can be indirect. Some entries that bind do so weakly or less than the wild type.

By UniProt entry, the sequences of proteins in these tests, tags left out.
UniProt Q9LDI3: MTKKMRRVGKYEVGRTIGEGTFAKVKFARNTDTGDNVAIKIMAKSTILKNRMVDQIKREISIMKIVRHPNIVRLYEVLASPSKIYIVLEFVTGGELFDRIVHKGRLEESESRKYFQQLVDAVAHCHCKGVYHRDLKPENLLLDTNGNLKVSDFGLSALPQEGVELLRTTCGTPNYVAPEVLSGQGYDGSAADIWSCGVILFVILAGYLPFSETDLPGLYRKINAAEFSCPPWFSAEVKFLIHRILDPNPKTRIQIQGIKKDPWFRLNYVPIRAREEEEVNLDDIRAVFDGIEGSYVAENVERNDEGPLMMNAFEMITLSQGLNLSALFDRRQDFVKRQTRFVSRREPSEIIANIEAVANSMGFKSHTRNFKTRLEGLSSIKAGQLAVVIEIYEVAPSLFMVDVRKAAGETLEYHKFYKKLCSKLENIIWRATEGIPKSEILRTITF
UniProt O81445: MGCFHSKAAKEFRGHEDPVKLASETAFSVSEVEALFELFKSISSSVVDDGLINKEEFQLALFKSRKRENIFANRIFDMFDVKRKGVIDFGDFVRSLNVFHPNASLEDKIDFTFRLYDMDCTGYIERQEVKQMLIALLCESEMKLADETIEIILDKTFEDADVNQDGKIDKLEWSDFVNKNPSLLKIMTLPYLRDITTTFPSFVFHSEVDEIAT

Target: CIPK (CBL interacting protein kinase) 24 (UniProt Q9LDI3)
Experiment: split reporter; BiFC with split SCFP in Nicotiana benthamiana leaf epidermal cells after agroinfiltration; CFP fluorescence by confocal microscopy 2 to 3 days after injection

- binding: binds
Substance: calcineurin B-like protein (CBL) 1 (from UniProt O81445 1-213)
